Changes are numbered by the printed parent chain. Results are given in words; binding and its absence hold for the method and conditions named. Some binding calls cover weakened binding; strength is not graded here. Blank lines part the entries; values can stand above or below the binder they belong to.
How the values were obtained:
[1] = molecular target: fusion protein of human CD79B extracellular domain (ECD) and His tag (human CD79B ECD-His) (human) (UniProt P40259); test: SPR etc.
[2] = molecular target: human CD79B antigen (coating antigen of the ELISA, construct not stated) (human) (UniProt P40259); test: ELISA, plate coated with antigen at 1 ug/mL, serial antibody dilutions, OD450
[3] = molecular target: human CD79B antigen (coating antigen of the ELISA, construct not stated) (human) (UniProt P40259); test: ELISA, purified antibody from 100 nM (1:10 dilutions) on plate coated with antigen 1 µg/mL

Amino acid sequences for entries named in this document (tags omitted). Residues count along the entry.
UniProt P40259, residues 29-159: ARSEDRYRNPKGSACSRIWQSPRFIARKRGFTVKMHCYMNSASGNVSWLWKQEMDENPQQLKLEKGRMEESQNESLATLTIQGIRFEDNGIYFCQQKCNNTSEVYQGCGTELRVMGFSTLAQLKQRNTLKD

B1: humanized antibody hAb015 (antibody, human IgG1, kappa, V domains shown)
VH: EVQLVQSGAEVKKPGSSVKVSCKASGSSFSSYGINWVKQAPGQGLEWIGEIFPRSGNTYYNEKFEGRATLTADKSTSTAYMELRSLRSEDTAVYYCAKGDLGDFDYWGQGTTVTVSS
VL: DFVMTQTPLSLPVTPGEPASISCRSSQSIVHSDGNTYFEWYLQKPGQSPKLLIYKVSNRFSGVPDRFSGSGSGTDFTLKISRVEAEDVGVYYCFQGSHVPWTFGGGTKVEIKR
- binding [1]: binds

B2: humanized antibody hAb017 (antibody, human IgG1, kappa, V domains shown)
VH: EVQLVQSGAEVKKPGASVKVSCKASGYTFTTYGINWVKQAPGQGLEWIGEIYPRSGNIYYNEKFKGKATLTADKSTSTAYMELRSLRSDDTAVYYCARGSDYDGDFAYWGQGTLVTVSS
VL: B1 VL with F2V, S32H, F38L, K50Q
- binding [1]: binds

B3: murine hybridoma monoclonal antibody mAb015 (antibody, V domains shown)
VH: QVQLQQSGAELARPGASVKLSCKASGSSFTSYGINWVKQRTGQGLEWIGEIFPRSGNTYYNEKFEGKATLTADKSSSTAYMELRSLTSEDSAVYFCAKGDLGDFDYWGQGTTLTVSS
VL: DFLMTQTPLSLPVRLGDQASISCRSSQSIVHSDGNTYFEWYLQKPGQSPKLLIYKVSNRFSGVPDRFSGSGSGTDFTLKISRVEAEDLGVYYCFQGSHVPWTFGGGTKLEIK
- binding [2]: binds
- binding [3]: binds

Further lines, results first:

- binding [2]: binds
- binding [3]: binds
B4: murine hybridoma monoclonal antibody mAb017 (antibody, V domains shown)
VH: QVQLQQSGAELARPGASVKLSCKASGYTFTTYGINWVKQRTGQGLEWIGEIYPRSGNIYYNEKFKGKATLTADKSSSTAYMELRSLTSEDSAVYFCARGSDYDGDFAYWGQGTLVTVSA
VL: B3 VL with F2V, R14S, S32H, F38L, K108Q

- binding [2]: binds
- binding [3]: binds
B5: murine hybridoma monoclonal antibody mAb016 (antibody, V domains shown)
VH: QVQLQQSGAELARPGASVKLSCKASGYIFTNYGIIWVKQRTGQGLEWIGDIFPGSGNTYYNENFKGKATLTADKSSSTAYMELRSLTSEDSAVYFCSRGELGDFDYWGQGTTLTVSS
VL: B3 VL with D1V, F2V, R14S, S28N, N35T, F38L, V90I

Source: patent publication US20220162304A1
